Experimental data as given in paper PMC11558545, “Mechanistic Insights into the Function of 14-3-3 Proteins as Negative Regulators of Brassinosteroid Signaling in Arabidopsis” (Plant and Cell Physiology, 2024).
Results are given in words; binding and its absence hold for the method and conditions named.

T1: 14-3-3 λ^R136L/Y137F (Arabidopsis thaliana) (UniProt P48349)
T1 sequence: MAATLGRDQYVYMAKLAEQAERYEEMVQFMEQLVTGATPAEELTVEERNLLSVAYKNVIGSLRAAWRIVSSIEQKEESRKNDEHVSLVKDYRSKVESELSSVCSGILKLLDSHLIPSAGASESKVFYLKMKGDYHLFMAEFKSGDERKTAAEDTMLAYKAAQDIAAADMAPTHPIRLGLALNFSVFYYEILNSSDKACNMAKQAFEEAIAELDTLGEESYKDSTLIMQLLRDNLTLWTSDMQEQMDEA

T2: Arabidopsis 14-3-3 isoform kappa (At14-3-3-κ^1−248) (Arabidopsis thaliana) (UniProt P48348)
T2 sequence: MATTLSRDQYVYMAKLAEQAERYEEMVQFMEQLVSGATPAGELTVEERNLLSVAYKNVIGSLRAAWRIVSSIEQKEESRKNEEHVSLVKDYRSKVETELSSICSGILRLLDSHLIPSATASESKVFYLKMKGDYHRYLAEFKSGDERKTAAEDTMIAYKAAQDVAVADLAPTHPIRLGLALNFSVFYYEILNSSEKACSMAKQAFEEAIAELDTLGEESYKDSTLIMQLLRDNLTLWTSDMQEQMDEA

T3: Arabidopsis 14-3-3 isoform kappa (At14-3-3-κ^1−248) (Arabidopsis thaliana), P48348
T3 chain: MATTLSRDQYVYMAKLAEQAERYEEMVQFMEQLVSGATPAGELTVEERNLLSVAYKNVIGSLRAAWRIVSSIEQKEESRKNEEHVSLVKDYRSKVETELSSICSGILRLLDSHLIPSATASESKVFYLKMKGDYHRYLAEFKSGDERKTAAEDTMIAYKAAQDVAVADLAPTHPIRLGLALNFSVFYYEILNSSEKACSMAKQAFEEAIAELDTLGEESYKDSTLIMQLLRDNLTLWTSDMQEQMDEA


What was measured:
[1] = biological target: T1, 14-3-3 λ^R136L/Y137F (Arabidopsis thaliana); assay: condition: 600 μM peptide injected into 50 μM 14-3-3; ITC; Nano ITC, 25°C, 25 mM Hepes pH 7.0, 50 mM KCl; 600 μM peptide or phosphopeptide injected into 50 μM 14-3-3 protein in the cell, 25 injections; both purified
[2] = biological target: T2, Arabidopsis 14-3-3 isoform kappa (At14-3-3-κ^1−248) (Arabidopsis thaliana); assay: as above
[3] = biological target: T2, Arabidopsis 14-3-3 isoform kappa (At14-3-3-κ^1−248) (Arabidopsis thaliana); assay: ITC; 14-3-3κ versus purified globular domains of BR signaling components (BRI1, BAK1 and BSK1 after auto-/transphosphorylation); Nano ITC, 25°C, 25 mM Hepes pH 7.0, 50 mM KCl; both purified
[4] = biological target: T3, Arabidopsis 14-3-3 isoform kappa …; assay: as above; details: remark: other sources report otherwise

Row | Binder | binding [1] | binding [2] | further results
1 | RGELFSAPASMRTSPTNSGH [BKI1^265−284 peptide] | – | no binding | –
2 | BIN2 (residues 7–380) expressed in Escherichia coli (enzyme, UniProt Q39011 7-380) MPAAVVDGHDQVTGHIISTTIGGKNGEPKQTISYMAERVVGTGSFGIVFQAKCLETGETVAIKKVLQDRRYKNRELQLMRVMDHPNVVCLKHCFFSTTSKDELFLNLVMEYVPESLYRVLKHYSSANQRMPLVYVKLYMYQIFRGLAYIHNVAGVCHRDLKPQNLLVDPLTHQVKICDFGSAKQLVKGEANISYICSRFYRAPELIFGATEYTTSIDIWSAGCVLAELLLGQPLFPGENAVDQLVEIIKVLGTPTREEIRCMNPHYTDFRFPQIKAHPWHKIFHKRMPPEAIDFASRLLQYSPSLRCTALEACAHPFFDELREPNARLPNGRPFPPLFNFKQEVAGSSPELVNKLIPDHIKRQLGLSFLNQSGT | – | – | binding [3]: no binding
3 | BIN2 (residues 7–380) expressed in insect cells (enzyme, UniProt Q39011 7-380) MPAAVVDGHDQVTGHIISTTIGGKNGEPKQTISYMAERVVGTGSFGIVFQAKCLETGETVAIKKVLQDRRYKNRELQLMRVMDHPNVVCLKHCFFSTTSKDELFLNLVMEYVPESLYRVLKHYSSANQRMPLVYVKLYMYQIFRGLAYIHNVAGVCHRDLKPQNLLVDPLTHQVKICDFGSAKQLVKGEANISYICSRFYRAPELIFGATEYTTSIDIWSAGCVLAELLLGQPLFPGENAVDQLVEIIKVLGTPTREEIRCMNPHYTDFRFPQIKAHPWHKIFHKRMPPEAIDFASRLLQYSPSLRCTALEACAHPFFDELREPNARLPNGRPFPPLFNFKQEVAGSSPELVNKLIPDHIKRQLGLSFLNQSGT | – | – | binding [3]: no binding
4 | BRI1^814−1196 cytoplasmic domain, after incubation with the BAK1^250−615 cytoplasmic domain, O22476 814-1196 (domain or fragment, here or on the partner: auto- and transphosphorylated by incubation with BAK1^250−615; sites not given) GREMRKRRRKKEAELEMYAEGHGNSGDRTANNTNWKLTGVKEALSINLAAFEKPLRKLTFADLLQATNGFHNDSLIGSGGFGDVYKAILKDGSAVAIKKLIHVSGQGDREFMAEMETIGKIKHRNLVPLLGYCKVGDERLLVYEFMKYGSLEDVLHDPKKAGVKLNWSTRRKIAIGSARGLAFLHHNCSPHIIHRDMKSSNVLLDENLEARVSDFGMARLMSAMDTHLSVSTLAGTPGYVPPEYYQSFRCSTKGDVYSYGVVLLELLTGKRPTDSPDFGDNNLVGWVKQHAKLRISDVFDPELMKEDPALEIELLQHLKVAVACLDDRAWRRPTMVQVMAMFKEIQAGSGIDSQSTIRSIEDGGFSTIEMVDMSIKEVPEGKL | – | – | binding [4]: no binding

Further lines, with some results ahead:

Row | binding [1] | binding [2] | Binder | further results
5 | no binding | – | RGELFSAP (phosphoserine at Ser270 (RGELFpSAP)) [pBKI1^265−272 peptide] | –
6 | – | no binding | KEALSIN (phosphoserine at Ser858 (KEALpSIN)) [pBRI1^851−860 peptide] | –
7 | – | no binding | KEALSIN [BRI1^851−860 peptide] | –
8 | no binding | – | RKLTFA (phosphothreonine at Thr872 (RKLpTFA)) [pBRI1^869−874 peptide] | –
9 | no binding | – | RISNSAP (phosphoserine at Ser173 (RISNpSAP)) [pBZR1^169−175 peptide] | –
